Experimental data from the supplement of paper PMC4604168 (melanoma cell lines).
Some of the results follow. Repeats are few or missing, and single values can be far off.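 Cells were imaged in 1,536-well plates, and nuclei stained with an antibody against cleaved PARP were counted against all DNA-stained nuclei to give the apoptosis fraction. Screening doses were chosen to leave most cells alive, and resting and induced cleaved-PARP levels differ strongly between cell lines.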

Assays:
Assay in all cases: cleaved PARP positive nuclei fraction relative to DMSO control; melanoma cells; higher = more apoptosis
Details in all cases: library dose: low library concentration; 72 h
501Mel = tested on: 501Mel
A101D = tested on: A101D
A2058 = tested on: A2058
C32 = tested on: C32
CBRC008 = tested on: CBRC008 (line from a melanoma biopsy)
CBRC014 = tested on: CBRC014 (line from a melanoma biopsy)
CBRC016 = tested on: CBRC016 (line from a melanoma biopsy)
CBRC017 = tested on: CBRC017 (line from a melanoma biopsy)
COLO792 = tested on: COLO792
COLO800 = tested on: COLO800
COLO829 = tested on: COLO829
G361 = tested on: G361
IPC-298 = tested on: IPC-298
IST-MEL1 = tested on: IST-MEL1
LB2518-MEL = tested on: LB2518-MEL
LOXIMVI = tested on: LOXIMVI

| Compound | cleaved PARP positive nuclei fraction (501Mel) [%] | cleaved PARP positive nuclei fraction (A101D) [%] | cleaved PARP positive nuclei fraction (A2058) [%] | cleaved PARP positive nuclei fraction (C32) [%] | cleaved PARP positive nuclei fraction (CBRC008) [%] | cleaved PARP positive nuclei fraction (CBRC014) [%] | cleaved PARP positive nuclei fraction (CBRC016) [%] | cleaved PARP positive nuclei fraction (CBRC017) [%] | cleaved PARP positive nuclei fraction (COLO792) [%] | cleaved PARP positive nuclei fraction (COLO800) [%] | cleaved PARP positive nuclei fraction (COLO829) [%] | cleaved PARP positive nuclei fraction (G361) [%] | cleaved PARP positive nuclei fraction (IPC-298) [%] | cleaved PARP positive nuclei fraction (IST-MEL1) [%] | cleaved PARP positive nuclei fraction (LB2518-MEL) [%] | cleaved PARP positive nuclei fraction (LOXIMVI) [%] |
| --- | --- | --- | --- | --- | --- | --- | --- | --- | --- | --- | --- | --- | --- | --- | --- | --- |
| O=c1[nH]nc(Sc2ncc([N+](=O)[O-])s2)n1-c1ccc2c(c1)OCCO2 + CCCCCCCCCCCC1=C(O)C(=O)C=C(O)C1=O [Embelin] (first compound 0.2 µM, partner dose 1.2 µM) | 61.3 | 11.7 | 43.1 | 54.6 | 34.1 | 92 | 38.4 | 120 | 102 | 69 | 61.2 | 94.1 | 145 | 113 | 73.8 | 61 |
| Cc1cn(-c2cc(NC(=O)c3ccc(C)c(Nc4nccc(-c5cccnc5)n4)c3)cc(C(F)(F)F)c2)cn1 [nilotinib] + Cn1cc(/C=C2\C(=O)Nc3cccnc32)c2ccccc21 [GW441756] (first compound 0.2 µM, partner dose 0.4 µM) | 72 | 53.4 | 57 | 164 | 49.5 | 109 | 45 | 73.3 | 64.1 | 51.8 | 179 | 138 | 50.8 | 294 | 81.1 | 74.8 |
| COc1cc([C@@H]2c3cc4c(cc3[C@@H](O[C@@H]3O[C@@H]5CO[C@@H](C)O[C@H]5[C@H](O)[C@H]3O)[C@H]3COC(=O)[C@H]23)OCO4)cc(OC)c1O [etoposide] + CCc1ccc(CCOc2ccc(CC3SC(=O)NC3=O)cc2)nc1 [pioglitazone] (first compound 0.02 µM, partner dose 2 µM) | 118 | 24 | 84.7 | 183 | 90.1 | 88.8 | 54.9 | 88.5 | 154 | 68.1 | 48.5 | 230 | 182 | 128 | 64.2 | 233 |
| CCCCCCCCCCCCCCCCCCOP(=O)([O-])OC1CC[N+](C)(C)CC1 [Perifosine] + O=S(=O)(c1ccccc1)N(CC(F)(F)F)c1ccc(C(O)(C(F)(F)F)C(F)(F)F)cc1 [T0901317] (first compound 0.4 µM, partner dose 1.4 µM) | 35.2 | 14.6 | 134 | 190 | 167 | 98.4 | 64 | 102 | 56.6 | 56 | 169 | 123 | 32.6 | 117 | 158 | 91.7 |
| Cc1cc(Nc2cc(N3CCN(C)CC3)nc(Sc3ccc(NC(=O)C4CC4)cc3)n2)n[nH]1 [Tozasertib] + O=c1cc(-c2cccc3c2Sc2ccccc2S3)oc(N2CCOCC2)c1 [KU55933] (first compound 0.006 µM, partner dose 1 µM) | 65.5 | 65.5 | 42.6 | 152 | 48.8 | 105 | 100 | 88.7 | 107 | 110 | 99 | 161 | 89.1 | 89.8 | 65.6 | 158 |
| N#CC[C@H](C1CCCC1)n1cc(-c2ncnc3[nH]ccc23)cn1 [ruxolitinib] + COc1ccc(-c2ccc3c(N4CCOCC4)nc(N4C[C@@H](C)O[C@@H](C)C4)nc3n2)cc1CO [KU0063794] (first compound 1 µM, partner dose 0.02 µM) | 131 | 25.2 | 45.1 | 113 | 118 | 114 | 20.8 | 84.6 | 65 | 75.7 | 73.2 | 91.4 | 165 | 91.4 | 41.4 | 351 |
| CC[C@]1(O)C[C@H]2CN(CCc3c([nH]c4ccccc34)[C@@](C(=O)OC)(c3cc4c(cc3OC)N(C=O)[C@H]3[C@@](O)(C(=O)OC)[C@H](OC(C)=O)[C@]5(CC)C=CCN6CC[C@]43[C@@H]65)C2)C1 [vincristine] + Cc1cc([N+](=O)[O-])ccc1NS(=O)(=O)c1cc(Cl)ccc1Cl [FH535] (first compound 0.0001 µM, partner dose 1 µM) | 113 | 47.6 | 2090 | 402 | 464 | 191 | 472 | 371 | 140 | 52.7 | 271 | 93.3 | 107 | 64 | 97.3 | 120 |
| N#CC[C@H](C1CCCC1)n1cc(-c2ncnc3[nH]ccc23)cn1 [ruxolitinib] + CCc1ccc(CCOc2ccc(CC3SC(=O)NC3=O)cc2)nc1 [pioglitazone] (first compound 1 µM, partner dose 2 µM) | 65.1 | 5.57 | 125 | 80.2 | 151 | 94.1 | 116 | 97.5 | 150 | 9.78 | 121 | 83.4 | 175 | 137 | 68.3 | 65.7 |
| Cc1cn(-c2cc(NC(=O)c3ccc(C)c(Nc4nccc(-c5cccnc5)n4)c3)cc(C(F)(F)F)c2)cn1 [nilotinib] + Oc1cc(-c2nc(-c3ccccc3)[nH]c2-c2ccncc2)ccc1Cl [L779450] (first compound 0.2 µM, partner dose 0.2 µM) | 93.2 | 49.5 | 87.4 | 88.5 | 96.4 | 112 | 70 | 84.5 | 133 | 102 | 113 | 158 | 44.4 | 57.8 | 149 | 74.2 |
